Laboratory results taken from the supplement of paper PMC12067093, “Discovery and optimisation of a covalent ligand for TRIM25 and its application to targeted protein ubiquitination” (Chemical Science, 2025).
This is one part of the list.

By UniProt entry, the sequences of proteins in these tests, tags left out. Where a name states a change or a piece, a line headed by the entry shows the natural chain unless it says otherwise.
UniProt Q8NCN5: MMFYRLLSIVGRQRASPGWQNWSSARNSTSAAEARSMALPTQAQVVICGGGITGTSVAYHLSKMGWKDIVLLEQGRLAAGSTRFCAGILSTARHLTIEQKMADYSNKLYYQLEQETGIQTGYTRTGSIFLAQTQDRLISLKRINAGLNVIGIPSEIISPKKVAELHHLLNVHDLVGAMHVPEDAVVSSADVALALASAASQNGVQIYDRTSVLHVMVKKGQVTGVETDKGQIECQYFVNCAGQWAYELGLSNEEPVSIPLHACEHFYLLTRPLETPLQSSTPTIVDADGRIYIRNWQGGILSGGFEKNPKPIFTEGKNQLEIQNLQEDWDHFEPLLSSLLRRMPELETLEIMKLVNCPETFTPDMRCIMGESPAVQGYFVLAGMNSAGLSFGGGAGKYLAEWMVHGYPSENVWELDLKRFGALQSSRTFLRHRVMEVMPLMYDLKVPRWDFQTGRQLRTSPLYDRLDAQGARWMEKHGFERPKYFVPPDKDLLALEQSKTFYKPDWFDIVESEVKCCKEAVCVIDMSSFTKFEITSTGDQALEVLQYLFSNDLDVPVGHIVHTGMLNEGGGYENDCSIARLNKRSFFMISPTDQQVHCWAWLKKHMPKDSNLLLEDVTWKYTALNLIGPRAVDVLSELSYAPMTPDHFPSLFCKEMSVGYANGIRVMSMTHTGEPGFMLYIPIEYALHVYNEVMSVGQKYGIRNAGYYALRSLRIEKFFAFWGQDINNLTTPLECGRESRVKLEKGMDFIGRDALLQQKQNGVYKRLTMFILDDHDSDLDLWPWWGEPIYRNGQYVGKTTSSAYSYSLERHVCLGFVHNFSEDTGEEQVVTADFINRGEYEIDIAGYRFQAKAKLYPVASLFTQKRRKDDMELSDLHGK
UniProt O95613: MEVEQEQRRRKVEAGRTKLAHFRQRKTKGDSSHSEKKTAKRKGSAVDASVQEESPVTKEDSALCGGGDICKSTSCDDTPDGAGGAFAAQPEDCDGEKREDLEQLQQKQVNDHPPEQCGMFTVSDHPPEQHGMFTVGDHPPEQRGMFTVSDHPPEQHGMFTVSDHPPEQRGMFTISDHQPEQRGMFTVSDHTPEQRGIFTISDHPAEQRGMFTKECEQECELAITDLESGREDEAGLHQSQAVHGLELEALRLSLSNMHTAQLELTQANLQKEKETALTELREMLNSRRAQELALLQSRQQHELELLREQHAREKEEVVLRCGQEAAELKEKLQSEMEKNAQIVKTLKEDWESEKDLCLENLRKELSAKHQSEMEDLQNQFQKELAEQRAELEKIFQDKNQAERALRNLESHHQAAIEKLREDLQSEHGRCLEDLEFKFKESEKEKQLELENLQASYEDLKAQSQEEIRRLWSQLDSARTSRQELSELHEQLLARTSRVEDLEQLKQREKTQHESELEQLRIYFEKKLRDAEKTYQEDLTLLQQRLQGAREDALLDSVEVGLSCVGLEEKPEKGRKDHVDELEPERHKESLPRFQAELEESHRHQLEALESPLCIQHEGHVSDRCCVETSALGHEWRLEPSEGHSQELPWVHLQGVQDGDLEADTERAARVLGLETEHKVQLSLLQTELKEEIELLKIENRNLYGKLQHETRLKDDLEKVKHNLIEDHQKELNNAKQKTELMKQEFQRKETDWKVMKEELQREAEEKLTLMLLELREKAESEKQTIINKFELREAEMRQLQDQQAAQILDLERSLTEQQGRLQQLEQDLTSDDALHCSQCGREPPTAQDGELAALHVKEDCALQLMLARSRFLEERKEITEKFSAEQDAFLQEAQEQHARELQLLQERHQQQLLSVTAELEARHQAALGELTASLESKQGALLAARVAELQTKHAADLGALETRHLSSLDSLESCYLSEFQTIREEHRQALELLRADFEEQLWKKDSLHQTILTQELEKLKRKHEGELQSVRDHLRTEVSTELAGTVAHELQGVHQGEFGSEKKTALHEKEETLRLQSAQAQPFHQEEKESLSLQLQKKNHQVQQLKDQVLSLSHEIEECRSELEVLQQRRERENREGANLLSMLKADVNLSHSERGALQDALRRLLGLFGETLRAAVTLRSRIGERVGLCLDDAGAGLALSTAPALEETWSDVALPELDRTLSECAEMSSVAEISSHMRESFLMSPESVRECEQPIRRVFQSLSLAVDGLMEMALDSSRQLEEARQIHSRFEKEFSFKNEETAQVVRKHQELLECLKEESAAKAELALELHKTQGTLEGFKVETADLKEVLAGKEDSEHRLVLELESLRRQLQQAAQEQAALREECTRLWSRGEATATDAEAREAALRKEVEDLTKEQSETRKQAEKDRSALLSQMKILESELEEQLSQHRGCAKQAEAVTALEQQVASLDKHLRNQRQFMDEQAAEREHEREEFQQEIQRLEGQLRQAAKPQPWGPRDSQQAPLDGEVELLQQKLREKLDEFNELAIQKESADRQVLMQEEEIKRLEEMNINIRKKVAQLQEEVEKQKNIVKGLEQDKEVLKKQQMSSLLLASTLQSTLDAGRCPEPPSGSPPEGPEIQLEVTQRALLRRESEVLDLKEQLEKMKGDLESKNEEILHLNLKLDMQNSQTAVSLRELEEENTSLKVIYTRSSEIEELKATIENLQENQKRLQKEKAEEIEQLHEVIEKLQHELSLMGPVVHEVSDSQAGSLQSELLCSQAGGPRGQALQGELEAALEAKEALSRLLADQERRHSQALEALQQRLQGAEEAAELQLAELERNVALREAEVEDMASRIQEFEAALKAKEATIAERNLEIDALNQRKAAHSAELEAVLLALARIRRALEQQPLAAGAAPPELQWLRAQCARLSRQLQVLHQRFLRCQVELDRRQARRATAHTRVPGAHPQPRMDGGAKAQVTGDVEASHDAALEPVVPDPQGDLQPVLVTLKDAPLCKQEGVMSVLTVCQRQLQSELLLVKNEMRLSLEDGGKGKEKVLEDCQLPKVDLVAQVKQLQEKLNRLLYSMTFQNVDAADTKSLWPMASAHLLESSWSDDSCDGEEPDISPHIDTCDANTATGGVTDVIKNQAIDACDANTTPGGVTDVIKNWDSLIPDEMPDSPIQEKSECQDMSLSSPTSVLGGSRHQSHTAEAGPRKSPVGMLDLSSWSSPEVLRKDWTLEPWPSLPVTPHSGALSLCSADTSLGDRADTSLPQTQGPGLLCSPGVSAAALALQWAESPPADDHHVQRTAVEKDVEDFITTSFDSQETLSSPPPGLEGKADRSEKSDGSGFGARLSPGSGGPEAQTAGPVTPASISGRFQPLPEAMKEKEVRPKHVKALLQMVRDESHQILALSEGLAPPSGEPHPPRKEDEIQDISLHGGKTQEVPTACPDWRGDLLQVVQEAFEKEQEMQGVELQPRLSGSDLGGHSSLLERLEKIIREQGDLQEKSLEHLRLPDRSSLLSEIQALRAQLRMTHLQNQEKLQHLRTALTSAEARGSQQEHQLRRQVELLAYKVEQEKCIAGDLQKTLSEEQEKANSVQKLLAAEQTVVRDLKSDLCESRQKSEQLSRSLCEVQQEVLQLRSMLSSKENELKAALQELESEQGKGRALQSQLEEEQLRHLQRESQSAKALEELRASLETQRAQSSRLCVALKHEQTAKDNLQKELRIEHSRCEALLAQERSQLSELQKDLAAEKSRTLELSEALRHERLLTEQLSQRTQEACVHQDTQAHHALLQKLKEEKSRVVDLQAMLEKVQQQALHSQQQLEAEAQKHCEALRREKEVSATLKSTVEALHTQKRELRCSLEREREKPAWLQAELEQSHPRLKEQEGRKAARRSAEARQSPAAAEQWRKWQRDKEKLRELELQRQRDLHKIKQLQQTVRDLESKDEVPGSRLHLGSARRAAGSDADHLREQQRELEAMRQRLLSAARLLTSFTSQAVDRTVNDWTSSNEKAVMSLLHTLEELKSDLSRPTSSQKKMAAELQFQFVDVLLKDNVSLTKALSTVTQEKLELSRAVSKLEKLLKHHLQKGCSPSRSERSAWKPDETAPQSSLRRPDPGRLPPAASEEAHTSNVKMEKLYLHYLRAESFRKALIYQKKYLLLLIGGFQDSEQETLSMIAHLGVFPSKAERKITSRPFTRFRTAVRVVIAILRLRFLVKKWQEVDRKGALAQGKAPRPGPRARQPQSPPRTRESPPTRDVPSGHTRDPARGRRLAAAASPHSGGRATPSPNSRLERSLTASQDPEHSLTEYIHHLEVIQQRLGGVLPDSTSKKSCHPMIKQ
UniProt P05166: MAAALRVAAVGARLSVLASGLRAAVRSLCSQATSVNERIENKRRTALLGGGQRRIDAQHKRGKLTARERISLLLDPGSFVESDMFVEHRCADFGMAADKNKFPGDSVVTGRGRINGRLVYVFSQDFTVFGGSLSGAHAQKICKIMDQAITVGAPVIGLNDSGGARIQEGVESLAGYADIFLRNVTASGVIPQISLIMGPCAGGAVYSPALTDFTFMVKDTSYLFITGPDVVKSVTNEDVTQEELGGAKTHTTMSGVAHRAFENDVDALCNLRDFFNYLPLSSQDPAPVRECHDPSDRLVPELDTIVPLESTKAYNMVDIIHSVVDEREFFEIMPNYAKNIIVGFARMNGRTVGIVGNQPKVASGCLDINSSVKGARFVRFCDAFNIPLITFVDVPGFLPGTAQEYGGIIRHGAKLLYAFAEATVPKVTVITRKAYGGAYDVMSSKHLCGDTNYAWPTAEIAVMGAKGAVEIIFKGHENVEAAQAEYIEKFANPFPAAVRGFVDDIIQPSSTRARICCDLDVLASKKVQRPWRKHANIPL
UniProt Q96KB5: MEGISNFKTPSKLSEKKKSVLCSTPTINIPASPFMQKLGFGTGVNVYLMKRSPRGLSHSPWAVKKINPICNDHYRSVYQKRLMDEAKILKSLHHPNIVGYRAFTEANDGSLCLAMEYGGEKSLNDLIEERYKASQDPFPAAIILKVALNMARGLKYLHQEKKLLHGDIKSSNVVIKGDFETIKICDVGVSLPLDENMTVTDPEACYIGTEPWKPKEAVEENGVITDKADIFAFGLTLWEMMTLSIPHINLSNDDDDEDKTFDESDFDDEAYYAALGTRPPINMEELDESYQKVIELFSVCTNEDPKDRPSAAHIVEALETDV
UniProt Q29RF7: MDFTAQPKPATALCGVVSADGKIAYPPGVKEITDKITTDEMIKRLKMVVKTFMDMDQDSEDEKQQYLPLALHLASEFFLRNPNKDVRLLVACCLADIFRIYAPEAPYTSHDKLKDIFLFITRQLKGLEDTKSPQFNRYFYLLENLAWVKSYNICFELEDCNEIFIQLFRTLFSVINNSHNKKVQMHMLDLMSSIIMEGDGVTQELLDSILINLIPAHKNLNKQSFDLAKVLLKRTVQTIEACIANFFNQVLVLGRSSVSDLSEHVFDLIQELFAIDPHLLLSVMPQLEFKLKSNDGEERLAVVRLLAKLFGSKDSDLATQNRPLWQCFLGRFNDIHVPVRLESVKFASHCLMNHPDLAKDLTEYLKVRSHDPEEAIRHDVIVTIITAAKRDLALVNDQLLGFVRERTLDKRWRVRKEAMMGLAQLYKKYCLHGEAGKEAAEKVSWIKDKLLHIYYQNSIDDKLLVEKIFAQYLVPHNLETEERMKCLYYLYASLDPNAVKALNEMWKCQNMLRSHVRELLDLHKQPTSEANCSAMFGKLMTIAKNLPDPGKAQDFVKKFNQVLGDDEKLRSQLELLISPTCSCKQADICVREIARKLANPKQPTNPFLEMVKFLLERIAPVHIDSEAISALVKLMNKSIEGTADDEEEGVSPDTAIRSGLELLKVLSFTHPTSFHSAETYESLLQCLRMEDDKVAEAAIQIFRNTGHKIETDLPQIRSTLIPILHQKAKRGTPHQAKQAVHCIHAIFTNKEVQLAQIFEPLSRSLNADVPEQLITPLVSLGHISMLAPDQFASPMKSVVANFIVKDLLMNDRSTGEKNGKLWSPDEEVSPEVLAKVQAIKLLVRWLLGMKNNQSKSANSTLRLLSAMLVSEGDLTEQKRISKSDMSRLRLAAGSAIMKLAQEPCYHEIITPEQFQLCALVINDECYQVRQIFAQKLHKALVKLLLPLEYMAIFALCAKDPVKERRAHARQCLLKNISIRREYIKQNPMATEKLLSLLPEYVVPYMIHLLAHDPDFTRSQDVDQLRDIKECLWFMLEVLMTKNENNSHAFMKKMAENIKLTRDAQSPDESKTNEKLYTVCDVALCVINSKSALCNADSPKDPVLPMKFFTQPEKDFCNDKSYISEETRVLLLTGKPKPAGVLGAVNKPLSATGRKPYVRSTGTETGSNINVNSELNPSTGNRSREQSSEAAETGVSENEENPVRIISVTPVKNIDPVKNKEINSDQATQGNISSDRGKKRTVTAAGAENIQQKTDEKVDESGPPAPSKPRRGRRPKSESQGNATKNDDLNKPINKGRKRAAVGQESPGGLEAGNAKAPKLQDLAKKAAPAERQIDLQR

Compound: CC1Cc2ccccc2N1C(=O)C1CCCN(C1)C(=O)CCl (mixture of isomers) [TRIM25 ligand 11 (diastereomer mixture)]
Assay: probe-labelled cysteine peptide fold change vs DMSO (competition) (log2 fold change); higher = less target engagement (more negative = stronger competition)
Details: THP-1, incubation time: 4 h
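Note: competitive chemoproteomic profiling in live THP-1 cells with an iodoacetamide desthiobiotin (IA-DTB) probe, comparing probe-labelled peptide intensities in compound-treated cells against DMSO-treated controls.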

Target	probe-labelled cysteine peptide fold change (10 µM)	probe-labelled cysteine peptide fold change (50 µM)
PDPR_Q8NCN5_653_AVDVLSELSYAPMTPDHFPSLFCK (UniProt Q8NCN5)	0.0564	-0.00485
PCM1_Q15154_1616_EHMDEVCSSQLLTSVR (UniProt Q15154)	-0.0625	0.111
PCBP3_P57721_195_QICVVMLESPPK (UniProt P57721)	0.012	0.0615
PDCD7_Q8N8D1_339_GVCPPASADETFTHHLQR (UniProt Q8N8D1)	0.271	0.0549
PCNT_O95613_70_EDSALCGGGDICK (UniProt O95613)	-0.237	-0.2
PCK2_Q16822_63_LCQPEGIHICDGTEAENTATLTLLEQQGLIR (UniProt Q16822)	0.0861	0.0794
PDSS2_Q86YH6_71_CLLSDELSNIAMQVR (UniProt Q86YH6)	-0.0743	-0.206
PCCB_P05166_291_DFFNYLPLSSQDPAPVRECHDPSDR (UniProt P05166)	-0.277	-0.347
PBK_Q96KB5_70_INPICNDHYR (UniProt Q96KB5)	0.0146	0.0264
PDLIM4_P50479_72_GCHDHLTLSVSRPEGR (UniProt P50479)	0.361	0.0886
PDE12_Q6L8Q7_250_LHCTPGDGQR (UniProt Q6L8Q7)	-0.143	-0.0772
PDS5A_Q29RF7_589_QADICVR (UniProt Q29RF7)	-0.0431	0.109
PDCD11_Q14690_361_LSCQNLGAVLDDVPVQGFFK (UniProt Q14690)	-0.0405	-0.0807
PDLIM2_Q96JY6_160_SFQSLACSPGLPAADR (UniProt Q96JY6)	-0.11	-0.182

Single values from above:
probe-labelled cysteine peptide fold change (50 µM), PCNT_O95613_70_EDSALCGGGDICK (UniProt O95613) reads -0.2
probe-labelled cysteine peptide fold change (50 µM), PCCB_P05166_291_DFFNYLPLSSQDPAPVRECHDPSDR (UniProt P05166) reads -0.347
